# Measured values taken from patent US20250282714A1, “COMPOSITIONS FOR AND METHODS OF MODULATING RNA STABILITY” (Duke University, priority 2022, published 2025).
# Tested on: MALAT1 triple helix
# Assay: Isothermal titration calorimetry (ITC)
# Assay type: binding, human
# Conditions: 25° C., Tris buffer pH 7.4
Structure (SMILES),-TDS [kcal/mol],DG [kcal/mol],DH [kcal/mol]
CN(C)CCCNC(=N)c1ccc(/N=N/Nc2ccc(C(=N)NCCCN(C)C)cc2)cc1 [DMZ-P1],-0.16,–,–
"N=C(N)c1ccc(/N=N/Nc2ccc(C(=N)N)cc2)cc1 [DMZ-P0, diminazene, reference compound]",0.409,-1.46,-1.87
CN1CCN(CCNC(=N)c2cccc(/N=N/Nc3cccc(C(=N)NCCN4CCN(C)CC4)c3)c2)CC1 [DMZ-M10],-1.15,-1.47,-0.318
N=C(NCc1ccc(Cl)cc1)c1ccc(/N=N/Nc2ccc(C(=N)NCc3ccc(Cl)cc3)cc2)cc1 [DMZ-P5],0.167,-1.45,-1.62
N=C(NC1CCN(Cc2ccccc2)CC1)c1ccc(/N=N/Nc2ccc(C(=N)NC3CCN(Cc4ccccc4)CC3)cc2)cc1 [DMZ-P8],-0.762,-1.63,-0.87
N=C(NCCN1CCNCC1)c1ccc(/N=N/Nc2ccc(C(=N)NCCN3CCNCC3)cc2)cc1 [DMZ-P9],-1.13,-1.5,-0.366
CN(C)CCCNC(=N)c1cccc(/N=N/Nc2cccc(C(=N)NCCCN(C)C)c2)c1 [DMZ-M1],-0.115,-1.73,-1.61
N=C(NCCC1CCN(Cc2ccccc2)CC1)c1ccc(/N=N/Nc2ccc(C(=N)NCCC3CCN(Cc4ccccc4)CC3)cc2)cc1 [DMZ-P13],-0.908,-1.56,-0.65
